57 compounds from PubChem BioAssay AID2685 (National Center for Advancing Translational Sciences (NCATS), 2010) can be followed below.

This experiment is described as follows: qHTS Assay for Lipid Storage Modulators in Drosophila S3 Cells.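 For cell number change: cells counted by Cell Tracker Red CMTPX staining in the red channel.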 As to conditions: BODIPY lipid droplet fluorescence, 18-24 h; for cell number change: measured here: cell count max response, cells fed with added oleic acid. A digest of the protocol:
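Drosophila S3 cells got compounds at several concentrations plus oleic acid (400 uM solution). Laser-scanning cytometry with 488 nm excitation read lipid droplets at 500-530 nm and cells at 575-640 nm. Percent activity was relative to 20 uM Triacsin C.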
In general terms: Quantitative high-throughput screening tests each substance at several concentrations.

[1] abbreviates: measured here: lipid fluorescence (Fed channel) AC50, cells fed with added oleic acid.
Setting [2] is: measured here: cell number channel AC50, cells fed with added oleic acid.

Structures are written as SMILES. The list shows a part of the results. The main result of the screen is listed elsewhere. These columns were measured beside it and carry no call. Most of these compounds were active or inconclusive in the main read-out, so they are no random draw. The note in brackets gives the kind of curve behind each potency; many fits are weak.

Regarding `CCCCn1c(=O)[nH]c(=O)c2c1nc(COC(=O)c1c(C)noc1C)n2CCC`, the cell number change is -19.4%. The concentration at half-maximal activity (AC50) under setting [1] was 0.517 µM [rising, full curve].

As to `CN(C)S(=O)(=O)c1ccc(C(=O)OCCN=C2NS(=O)(=O)c3ccccc32)cc1`, the cell number change worked out at 2.88%. Besides, under setting [1], the AC50 is 6.51 µM [rising, single point].

As for `Nc1nc2nc(-c3ccccc3)cc(=O)n2[nH]1`, the cell number change came to 16.5%. Under setting [1], the AC50 is 0.231 µM [falling, full curve, poor fit].

For the compound `COC(=O)c1ccccc1NS(=O)(=O)c1ccc(Cl)nc1`, the cell number change was found to be 45.2%. Further, the AC50 under setting [2] was 14.6 µM [rising, single point].

As to `Cc1ccc(NC(=O)C2CCN(S(=O)(=O)c3ccc4c(c3)CCCC(=O)N4)CC2)c(Br)c1`, the cell number change stood at 0.76%. Further, the half-maximal activity concentration (AC50) under setting [1] is 10.3 µM [rising, partial curve].

As to `Cc1ccccc1N1C(=O)Cc2ccccc2C1=O`, the cell number change is -5.88%. For the same compound, the AC50 under setting [1] is 0.206 µM [rising, single point].

With `Cc1cc(C(=O)CCC(=O)N2CCN(S(=O)(=O)c3cccs3)CC2)c(C)s1`, the cell number change was 56.9%. The AC50 under setting [2] is 5.8 µM [rising, full curve]. Further, the AC50 under setting [1] is 0.651 µM [rising, single point].

For the compound `O=C(c1ccco1)N1CCN(C(=O)c2cccs2)CC1`, the cell number change was -18.2%. Besides, the AC50 under setting [1] is 18.4 µM [falling, partial curve, poor fit].

On to `OCCN1CCN(c2nc(N3CCCCC3)nc(N3CCCCC3)n2)CC1`, for which the cell number change was 14.1%. The AC50 under setting [2] was 6.51 µM [rising, single point].

Turning to `COC(=O)C12CCC3(SCCS3)C(C(=O)OC)(CCC13SCCS3)C2`, the cell number change was -32.1%. Moreover, the AC50 under setting [2] was 0.731 µM [falling, full curve, poor fit]. Moreover, the AC50 under setting [1] is 0.82 µM [falling, full curve, poor fit].

In the case of `Cc1ccccc1N/N=C/c1ccc(C#N)cc1`, the cell number change is 38.3%. Besides, under setting [2], the AC50 is 8.2 µM [rising, partial curve]. Also, under setting [1], the AC50 is 1.84 µM [rising, partial curve].

In the case of `CCn1c(=O)c(C(=O)Nc2ccc(C)cc2)c(O)c2ccccc21`, the cell number change is 17.9%. For the same compound, under setting [1], the AC50 was 23.1 µM [rising, single point].

On to `COc1ccc(/C=C/C(=O)OCC(=O)NC2CCCC2)c(OC)c1`, for which the cell number change is -13.1%. The AC50 under setting [1] was 4.11 µM [falling, single point].

`O=C(CN(CCc1ccccc1)C(=O)Cn1nnc(-c2cccs2)n1)NCc1ccco1`: the cell number change stood at 6.98%. For the same compound, under setting [1], the AC50 is 8.2 µM [rising, partial curve].

On to `Nc1nc2nc(-c3cccs3)cc(C(F)(F)F)n2n1`, for which the cell number change was -4.78%. Further, under setting [1], the AC50 is 6.51 µM [falling, single point].

For the compound `CCC1(C)NC(=O)N(CC(=O)NCC(=O)Nc2c(C)cc(C)cc2C)C1=O` (configuration not stated), the cell number change was -0.775%. Besides, under setting [2], the AC50 is 0.411 µM [rising, full curve, poor fit]. Further, the AC50 under setting [1] is 0.259 µM [rising, full curve, poor fit].

Turning to `O=C(Nc1ccc(F)cc1)c1ccc(C(=O)N2CCOCC2)cc1`, the cell number change is -0.656%. Besides, under setting [1], the AC50 is 0.0058 µM [falling, full curve, poor fit].

For the compound `O=C(COC(=O)c1ccc(S(=O)(=O)N2CCCCCC2)cc1)NCc1ccc(F)cc1`, the cell number change was -62%. Moreover, under setting [2], the AC50 is 18.4 µM [falling, single point]. Under setting [1], the AC50 was 29.1 µM [falling, partial curve].

On to `CC(=O)c1cccc(NC(=O)Cn2cnc(S(=O)(=O)N3CCOCC3)c2)c1`, for which the cell number change was -0.943%.

As to `COc1ccc2c(c1)C1=NN(/C(C)=C/C(C)=O)C(c3ccc(F)cc3)C1CC2` (configuration not stated), the cell number change is 20.7%. Also, the AC50 under setting [1] is 4.11 µM [falling, single point].

Turning to `CSc1ccc(CNC(=O)C2Cc3cc(S(=O)(=O)N4CCCC4)ccc3N2C(C)=O)cc1` (configuration not stated), the cell number change was -22.7%. Further, the AC50 under setting [1] was 29.1 µM [rising, single point].

Consider `O=C(CCNS(=O)(=O)c1ccc(Br)cc1)NCc1ccc2c(c1)OCO2`, for which the cell number change was determined as 0.304%.

For the compound `N#CCc1c(C#N)c(N)nc(N2CCN(S(=O)(=O)c3ccccc3F)CC2)c1C#N`, the cell number change is 42.7%. Besides, under setting [2], the AC50 is 25.9 µM [rising, single point]. The AC50 under setting [1] was 29.1 µM [rising, single point].

As for `COc1ccc(NC(=O)Cn2nnc(C(=O)Nc3ccccc3C)c2N)cc1`, the cell number change was found to be 41.1%. For the same compound, under setting [2], the concentration at half-maximal activity (AC50) is 14.6 µM [rising, partial curve, poor fit]. Further, the AC50 under setting [1] was 7.31 µM [rising, partial curve].

On to `CCc1cccc(C)c1NC(=O)CSc1nnc(-c2cc3cc(Br)ccc3o2)n1CC`, for which the AC50 was 1.84 µM [rising, partial curve] under setting [2] and 1.84 µM [rising, partial curve] under setting [1].

Regarding `CCc1nnc(NC(=O)CSc2nnc(-c3ccccc3OC)n2-c2ccc(C)cc2)s1`, the cell number change was found to be 72.4%. Further, the half-maximal activity concentration (AC50) under setting [2] was 14.6 µM [rising, partial curve].

For `COc1cccc(CN2CCC(C(=O)N3CCN(c4ccccc4F)CC3)CC2)c1OC`, the cell number change amounted to 18.3%. The AC50 under setting [2] is 0.00651 µM [rising, full curve, poor fit]. Moreover, the AC50 under setting [1] is 3.26 µM [falling, single point].

Take `Cc1ccc(CNC(=O)C2CCN(S(=O)(=O)c3ccc4c(c3)CC(C)N4C(=O)C3CC3)CC2)cc1` (configuration not stated): the cell number change came out at 19.7%. The AC50 under setting [1] was 29.1 µM [rising, single point].

As for `CC(C)OP(=O)(OC(C)C)C(C)NC(=O)Cc1ccccc1` (configuration not stated), the cell number change worked out at 32.3%. For the same compound, the AC50 under setting [1] was 18.4 µM [rising, single point].

Turning to `Cc1cc(C)n(Cc2cccc(C(=O)N/N=C/c3ccncc3)c2)n1`, the cell number change came out at 3.23%. For the same compound, the AC50 under setting [1] is 3.26 µM [rising, single point].

In the case of `COc1cc(C(=O)Nc2oc(-c3ccccc3)c(-c3ccccc3)c2C#N)cc(OC)c1OC`, the cell number change stood at 22.9%. Under setting [2], the AC50 is 0.082 µM [rising, full curve, poor fit].

Consider `CCOC(=O)N1CCN(C(=O)CCCn2c(=S)[nH]c3ccc(Br)cc3c2=O)CC1`, for which the cell number change is -59.4%. Also, the AC50 under setting [2] is 18.4 µM [falling, partial curve]. Under setting [1], the AC50 was 6.51 µM [falling, partial curve].

As to `CN(C(=O)COC(=O)c1ccc(Cl)s1)C1(C#N)CCCCC1`, the cell number change is 22.5%.

On to `CCOc1ccccc1CN1CCNC(=O)C1CC(=O)NC1CCCCC1` (configuration not stated), for which the cell number change is 10.4%. Moreover, the AC50 under setting [1] is 6.51 µM [falling, single point].

Regarding `Cc1ccc([N+](=O)[O-])cc1NC(=O)c1cccnc1`, the cell number change was 47.3%. Under setting [2], the AC50 is 29.1 µM [rising, partial curve, poor fit].

`CC1CCc2c(sc3nc4n(c(=O)c23)CCS4)C1` (configuration not stated): the cell number change is -1.45%. Moreover, the AC50 under setting [1] was 0.58 µM [falling, single point].

`Cc1cc(C(=O)N/N=C/c2cc(Br)ccc2OC(=O)c2ccc(Br)cc2)n[nH]1`: the cell number change was -19.8%. Besides, the AC50 under setting [1] was 14.6 µM [falling, partial curve].

Regarding `CC(C)COc1ccc(-c2nnc(-c3ccco3)o2)cc1`, the cell number change was -33.2%. Moreover, the AC50 under setting [2] is 29.1 µM [falling, single point].

Take `Cc1cccn2c(=O)c3cc(C(=O)N4c5ccccc5CC4C)n(C)c3nc12` (configuration not stated): the cell number change came to 7.76%. Moreover, the AC50 under setting [1] is 6.51 µM [rising, single point].

As for `Cc1ccc(C)c(NC(=O)CCN2CCC(C)CC2)c1`, the cell number change turned out to be 6.61%. Moreover, the AC50 under setting [1] is 6.51 µM [rising, single point].

Regarding `CCc1ccc(OCC(=O)NNC(=O)c2cc(S(=O)(=O)N3CCOCC3)ccc2N2CCCC2)cc1`, the cell number change was 8.01%. Moreover, the AC50 under setting [1] was 6.51 µM [falling, partial curve, poor fit].

`COc1ccc(CCNC(=O)C2CCCN2C(=O)Nc2cccc(C(C)=O)c2)cc1OC` (configuration not stated): the cell number change is -0.908%.

With `O=C(NCCCc1nc2ccccc2[nH]1)c1cccs1`, the cell number change stood at 3.73%. In addition, under setting [1], the AC50 was 0.116 µM [rising, full curve, poor fit].

`CCOC(=O)/C(C(N)=NCCCO)=C(/O)c1ccccc1`: the cell number change was -18.8%.

Consider `COc1cccc(N2CCN(S(=O)(=O)c3c(C)[nH]c(C)c3C(=O)N3CCCCC3)CC2)c1`, for which the cell number change is -4.29%. In addition, the AC50 under setting [1] is 29.1 µM [rising, single point].

For the compound `Cc1ccc2c(C(=O)CN3CCOCC3)c(C)[nH]c2c1`, the AC50 under setting [2] is 1.3 µM [rising, partial curve] and the AC50 under setting [1] was 4.11 µM [rising, single point].

Consider `O=C(CN(Cc1ccccc1)C(=O)CNS(=O)(=O)c1ccc(Cl)cc1)NCC1CCCO1` (configuration not stated), for which the cell number change is 28.2%.

Turning to `Cc1ccc(C(=O)N/C(=C\c2cccnc2)C(=O)N2CCCC2)cc1`, the cell number change is -6.72%.

Regarding `O=C(C1=C(O)C(=O)N(c2ccccc2)C1c1ccc([N+](=O)[O-])cc1)c1cccs1` (configuration not stated), the cell number change worked out at 0.993%.

As to `O=C(NC12CC3CC(CC(C3)C1)C2)N1CCN(c2ccccc2)CC1`, the cell number change is 8.11%. Moreover, the AC50 under setting [1] is 29.1 µM [falling, single point].

Consider `NC(=O)CC(NC(=O)Cc1cccc2ccccc12)c1ccc(N2CCC(N3CCCCC3)CC2)c([N+](=O)[O-])c1` (configuration not stated), for which the cell number change is -7.77%. The AC50 under setting [1] is 13 µM [falling, partial curve].

`CSC1=N/C(=C\c2cccnc2)C(=O)N1c1ccccc1`: the cell number change stood at 49.8%. For the same compound, the AC50 under setting [2] was 0.206 µM [rising, full curve]. Also, the AC50 under setting [1] was 5.8 µM [rising, full curve, poor fit].

With `Oc1c(C(c2ccccc2)N2CCN(Cc3ccccc3)CC2)sc2ncnn12` (configuration not stated), the cell number change is 20.8%. In addition, the AC50 under setting [1] is 0.164 µM [falling, full curve, poor fit].

Take `NS(=O)(=O)c1cc2c(cc1Cl)NC(CC1CCCC1)NS2(=O)=O` (configuration not stated): the cell number change came out at 21.3%. Besides, the AC50 under setting [1] is 5.8 µM [falling, full curve].

With `C/C(Cl)=C/Cn1c(SC(C)C)nc2c1c(=O)[nH]c(=O)n2C`, the cell number change came to 10.4%. In addition, under setting [1], the AC50 is 29.1 µM [rising, single point].

Regarding `Cc1cc(=O)c2cc3nc(-c4cccnc4)oc3c(Br)c2o1`, the cell number change is -52.5%. In addition, the AC50 under setting [2] was 18.4 µM [falling, single point]. In addition, the AC50 under setting [1] was 3.66 µM [rising, single point].

As to `Nc1nc(NCC2CCCO2)nc(Nc2ccc(F)cc2)c1[N+](=O)[O-]` (configuration not stated), the cell number change came out at 102%. Further, the AC50 under setting [1] was 6.51 µM [rising, single point].

One may read the AC50 as the midpoint of the concentration-response curve, whichever way the signal moves. The low end stands for activity at low concentration, the high end for activity only at high concentration.
